# The list shows a part of the results.
# B1: PX14351B-bth-512-36-512 (Bacteroides thetaiotaomicron) (protein)
# chain: ASETQQWKTLEDTRSALMGVYGLTRAALADNNTHWICGDLRKGDFTVYKRSDLQAVSDNELNKPYDLLKKVSNWRRFYAVINAASVFMEKAPRTVELDRSYSEQNLKYDIAQVRALRAFAYFYMVRIWGDVPLVTYSYDNGTFPSMPRTDAQTVLSYAKAELLTAIEDLPYQYGTQTNLYYGSYGAQWQGKLFNKLSAYSVLAHICAWQGNYAEAETYSAFIIDHASEINAKYTSIADLTSETGLFYSNASVKGSRILGFNFAHNDNEATQSGHLEQLTLAYPLVQKSYPEIYISKDSLFSIFTNFDDLRFGIIDTIKYSSYYVQNLNEETPVFSKIKIIQDGSAKDNDFGVFGSSIVFTRLEDITLLRAEALCALNRSTEAVSYLNMIRTNRGLREVSFKKDFGNNRESLIAEIFEERRRELMGEGWRWYDLVRRQKLMKDNEAFLRLISSGGIYWPVSEDIITANSQIEQNEFWK
# Columns and labels:
# Experiment in all cases: glycan array binding signal (z-score within array); higher = stronger binding
# Details in all cases: glycan notation: IUPAC condensed, linker removed
# [1] = molecular target: Fuc(a1-2)[GalNAc(a1-3)]Gal(b1-3)GalNAc(b1-3)Gal(a1-4)Gal(b1-4)Glc
# How it was run: (§1)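 The Consortium for Functional Glycomics database supplied 3228 glycan arrays, of which those lacking an available protein sequence were dropped. The binding signal, a within-array Z-score, was averaged across arrays of the same protein sequence and across linkers. Negative scores can be read as non-binding.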
# [2] = molecular target: Fuc(a1-2)[GalNAc(a1-3)]Gal(b1-3)GlcNAc
# How it was run: as §1
# [3] = molecular target: Fuc(a1-2)[GalNAc(a1-3)]Gal(b1-3)GlcNAc(b1-2)Man(a1-3)[Fuc(a1-2)[GalNAc(a1-3)]Gal(b1-3)GlcNAc(b1-2)Man(a1-6)]Man(b1-4)GlcNAc(b1-4)GlcNAc
# How it was run: as §1
# [4] = molecular target: Fuc(a1-2)[GalNAc(a1-3)]Gal(b1-3)GlcNAc(b1-2)Man(a1-3)[Fuc(a1-2)[GalNAc(a1-3)]Gal(b1-3)GlcNAc(b1-2)Man(a1-6)]Man(b1-4)GlcNAc(b1-4)[Fuc(a1-6)]GlcNAc
# How it was run: as §1
# [5] = molecular target: Fuc(a1-2)[GalNAc(a1-3)]Gal(b1-3)GlcNAc(b1-3)GalNAc
# How it was run: as §1
# [6] = molecular target: Fuc(a1-2)[GalNAc(a1-3)]Gal(b1-3)GlcNAc(b1-6)GalNAc
# How it was run: as §1
# [7] = molecular target: Fuc(a1-2)[GalNAc(a1-3)]Gal(b1-4)Glc
# How it was run: as §1
# [8] = molecular target: Fuc(a1-2)[GalNAc(a1-3)]Gal(b1-4)GlcNAc
# How it was run: as §1
# [9] = molecular target: Fuc(a1-2)[GalNAc(a1-3)]Gal(b1-4)GlcNAc(b1-2)Man
# How it was run: as §1
# [10] = molecular target: Fuc(a1-2)[GalNAc(a1-3)]Gal(b1-4)GlcNAc(b1-2)Man(a1-3)[Fuc(a1-2)[GalNAc(a1-3)]Gal(b1-4)GlcNAc(b1-2)Man(a1-6)]Man(b1-4)GlcNAc(b1-4)[Fuc(a1-6)]GlcNAc
# How it was run: as §1
# [11] = molecular target: Fuc(a1-2)[GalNAc(a1-3)]Gal(b1-4)GlcNAc(b1-3)Gal(b1-4)GlcNAc
# How it was run: as §1
# [12] = molecular target: Fuc(a1-2)[GalNAc(a1-3)]Gal(b1-4)GlcNAc(b1-3)Gal(b1-4)GlcNAc(b1-3)Gal(b1-4)GlcNAc
# How it was run: as §1
# [13] = molecular target: Fuc(a1-2)[GalNAc(a1-3)]Gal(b1-4)GlcNAc(b1-3)GalNAc
# How it was run: as §1
# [14] = molecular target: Fuc(a1-2)[GalNAc(a1-3)]Gal(b1-4)GlcNAc(b1-3)[Fuc(a1-2)[GalNAc(a1-3)]Gal(b1-4)GlcNAc(b1-6)]GalNAc
# How it was run: as §1
# [15] = molecular target: Fuc(a1-2)[GalNAc(a1-3)]Gal(b1-4)GlcNAc(b1-6)GalNAc
# How it was run: as §1
# [16] = molecular target: Fuc(a1-2)[GalNAc(a1-3)]Gal(b1-4)[Fuc(a1-3)]GlcNAc
# How it was run: as §1
# [17] = molecular target: Fuc(a1-2)[GalNAc(a1-3)]Gal(b1-4)[Fuc(a1-3)]GlcNAc(b1-3)GalNAc
# How it was run: as §1
# [18] = molecular target: Fuc(a1-2)[GalNAc(a1-4)]Gal(b1-4)GlcNAc
# How it was run: as §1
# [19] = molecular target: Fuc(a1-2)[GalNAc(b1-3)]Gal
# How it was run: as §1
# Fuc(a1-3)GlcNAc = molecular target: Fuc(a1-3)GlcNAc
# How it was run: as §1
# [20] = molecular target: Fuc(a1-3)[Gal(b1-4)]Glc6S
# How it was run: as §1
# [21] = molecular target: Fuc(a1-3)[Gal(b1-4)]GlcNAc
# How it was run: as §1
# [22] = molecular target: Fuc(a1-3)[Gal(b1-4)]GlcNAc(b1-2)Man
# How it was run: as §1
# [23] = molecular target: Fuc(a1-3)[Gal(b1-4)]GlcNAc(b1-2)Man(a1-3)[Fuc(a1-3)[Gal(b1-4)]GlcNAc(b1-2)Man(a1-6)]Man(b1-4)GlcNAc(b1-4)GlcNAc
# How it was run: as §1
# [24] = molecular target: Fuc(a1-3)[Gal(b1-4)]GlcNAc(b1-2)Man(a1-3)[Fuc(a1-3)[Gal(b1-4)]GlcNAc(b1-2)Man(a1-6)]Man(b1-4)GlcNAc(b1-4)[Fuc(a1-6)]GlcNAc
# How it was run: as §1
# [25] = molecular target: Fuc(a1-3)[Gal(b1-4)]GlcNAc(b1-3)Gal(b1-3)[Fuc(a1-4)]GlcNAc
# How it was run: as §1
# [26] = molecular target: Fuc(a1-3)[Gal(b1-4)]GlcNAc(b1-3)Gal(b1-4)[Fuc(a1-3)]GlcNAc
# How it was run: as §1
# [27] = molecular target: Fuc(a1-3)[Gal(b1-4)]GlcNAc(b1-3)GalNAc
# How it was run: as §1
# [28] = molecular target: Fuc(a1-3)[Gal(b1-4)]GlcNAc(b1-6)GalNAc
# How it was run: as §1
# [29] = molecular target: Fuc(a1-3)[Gal(b1-4)]GlcNAc(b1-6)[Gal(b1-3)GlcNAc(b1-3)]Gal(b1-4)Glc
# How it was run: as §1
# [30] = molecular target: Fuc(a1-3)[Gal(b1-4)]GlcNAc6S
# How it was run: as §1
# [31] = molecular target: Fuc(a1-3)[Gal3S(b1-4)]Glc
# How it was run: as §1
# [32] = molecular target: Fuc(a1-3)[Gal3S(b1-4)]GlcNAc
# How it was run: as §1
# [33] = molecular target: Fuc(a1-3)[Gal3S(b1-4)]GlcNAc6S
# How it was run: as §1
# [34] = molecular target: Fuc(a1-3)[GalNAc(b1-4)]GlcNAc
# How it was run: as §1
# Fuc(a1-4)GlcNAc = molecular target: Fuc(a1-4)GlcNAc
# How it was run: as §1
# Fuc(b1-3)GlcNAc = molecular target: Fuc(b1-3)GlcNAc
# How it was run: as §1
# Gal(a1-2)Gal = molecular target: Gal(a1-2)Gal
# How it was run: as §1
binder,measurement,setting,value
B1,glycan array binding signal (z-score),[1],-0.339
same,glycan array binding signal (z-score),[2],-0.152
same,glycan array binding signal (z-score),[3],-0.016
same,glycan array binding signal (z-score),[4],-0.383
same,glycan array binding signal (z-score),[5],-0.281
same,glycan array binding signal (z-score),[6],-0.144
same,glycan array binding signal (z-score),[7],-0.178
same,glycan array binding signal (z-score),[8],-0.349
same,glycan array binding signal (z-score),[9],0.104
same,glycan array binding signal (z-score),[10],-0.245
same,glycan array binding signal (z-score),[11],-0.267
same,glycan array binding signal (z-score),[12],-0.189
same,glycan array binding signal (z-score),[13],0.134
same,glycan array binding signal (z-score),[14],-0.298
same,glycan array binding signal (z-score),[15],0.339
same,glycan array binding signal (z-score),[16],-0.051
same,glycan array binding signal (z-score),[17],0.703
same,glycan array binding signal (z-score),[18],-0.226
same,glycan array binding signal (z-score),[19],-0.406
same,glycan array binding signal (z-score),Fuc(a1-3)GlcNAc,-0.313
same,glycan array binding signal (z-score),[20],-0.067
same,glycan array binding signal (z-score),[21],0.093
same,glycan array binding signal (z-score),[22],-0.233
same,glycan array binding signal (z-score),[23],-0.335
same,glycan array binding signal (z-score),[24],-0.246
same,glycan array binding signal (z-score),[25],-0.235
same,glycan array binding signal (z-score),[26],-0.349
same,glycan array binding signal (z-score),[27],0.598
same,glycan array binding signal (z-score),[28],-0.138
same,glycan array binding signal (z-score),[29],-0.242
same,glycan array binding signal (z-score),[30],-0.036
same,glycan array binding signal (z-score),[31],-0.309
same,glycan array binding signal (z-score),[32],-0.041
same,glycan array binding signal (z-score),[33],-0.239
same,glycan array binding signal (z-score),[34],-0.125
same,glycan array binding signal (z-score),Fuc(a1-4)GlcNAc,0.031
same,glycan array binding signal (z-score),Fuc(b1-3)GlcNAc,-0.335
same,glycan array binding signal (z-score),Gal(a1-2)Gal,-0.237

# Already shown: entries from further up.
binder,measurement,setting,value
B1,glycan array binding signal (z-score),[16],-0.051
same,glycan array binding signal (z-score),[17],0.703
same,glycan array binding signal (z-score),[18],-0.226
same,glycan array binding signal (z-score),[19],-0.406
same,glycan array binding signal (z-score),Fuc(a1-3)GlcNAc,-0.313
same,glycan array binding signal (z-score),[20],-0.067
same,glycan array binding signal (z-score),[21],0.093
same,glycan array binding signal (z-score),[22],-0.233
same,glycan array binding signal (z-score),[23],-0.335
same,glycan array binding signal (z-score),[24],-0.246
